Reference: paper PMC12036877
No constants are given. Whether binding was seen depends on the method and setting. In cells and extracts the contact can be indirect. Some entries that bind do so weakly or less than the wild type.

Target: T1, METTL14 (mouse retina) (mouse (endogenous in retina)) (UniProt Q3UIK4)
T1 sequence: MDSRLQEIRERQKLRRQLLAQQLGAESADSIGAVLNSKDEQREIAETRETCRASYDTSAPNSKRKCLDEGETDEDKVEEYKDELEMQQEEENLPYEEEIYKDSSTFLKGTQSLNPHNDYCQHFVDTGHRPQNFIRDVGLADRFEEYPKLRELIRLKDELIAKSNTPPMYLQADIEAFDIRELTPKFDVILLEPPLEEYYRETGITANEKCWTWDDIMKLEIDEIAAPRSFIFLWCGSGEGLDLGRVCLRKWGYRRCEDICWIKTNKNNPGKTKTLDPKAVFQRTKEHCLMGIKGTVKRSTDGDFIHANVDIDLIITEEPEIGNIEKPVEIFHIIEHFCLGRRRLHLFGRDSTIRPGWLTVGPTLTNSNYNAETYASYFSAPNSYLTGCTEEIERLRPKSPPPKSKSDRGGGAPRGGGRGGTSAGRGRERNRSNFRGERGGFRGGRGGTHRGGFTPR
Test: co-IP; retinas of mice (in vivo); Western blotting

binding: binds
B1: BARD1 (mouse retina) (protein, UniProt O70445 1-765)
chain: MPRRPPRVCSGNQPAPVPAMEPATDGLWAHSRAALARLEKLLRCSRCANILKEPVCLGGCEHIFCSGCISDCVGSGCPVCYTPAWILDLKINRQLDSMIQLSSKLQNLLHDNKDSKDNTSRASLFGDAERKKNSIKMWFSPRSKKVRYVVTKVSVQTQPQKAKDDKAQEASMYEFVSATPPVAVPKSAKTASRTSAKKHPKKSVAKINREENLRPETKDSRFDSKEELKEEKVVSCSQIPVMERPRVNGEIDLLASGSVVEPECSGSLTEVSLPLAEHIVSPDTVSKNEETPEKKVCVKDLRSGGSNGNRKGCHRPTTSTSDSCGSNIPSTSRGIGEPALLAENVVLVDCSSLPSGQLQVDVTLRRKSNASDDPLSLSPGTPPPLLNNSTHRQMMSSPSTVKLSSGMPARKRNHRGETLLHIASIKGDIPSVEYLLQNGNDPNVKDHAGWTPLHEACSHGHLKVVELLLQHNALVNTPGYQNDSPLHDAVKSGHIDIVKVLLSHGASRNAVNIFGVRPVDYTDNENIRSLLLLPEENESFSTSQCSIVNTGQRKNGPLVFIGSGLSSQQQKMLSKLETVLKAKKCMEFDSTVTHVIVPDEEAQSTLKCMLGILSGCWILKFDWVKACLDSKVREQEEKYEVPGGPQRSRLNREQLLPKLFDGCYFFLGGNFKHHPRDDLLKLIAAAGGKVLSRKPKPDSDVTQTINTVAYHAKPESDQRFCTQYIVYEDLFNCHPERVRQGKVWMAPSTWLISCIMAFELLPLDS
